The supplement of paper PMC12067093, “Discovery and optimisation of a covalent ligand for TRIM25 and its application to targeted protein ubiquitination” (Chemical Science, 2025)
The list shows a part of the results.

Protein sequences, listed by entry. Tags and fused reporters are not part of them. Lines headed by an entry give the natural chain unless they say otherwise; changes in a name come on top.
UniProt Q53GS9: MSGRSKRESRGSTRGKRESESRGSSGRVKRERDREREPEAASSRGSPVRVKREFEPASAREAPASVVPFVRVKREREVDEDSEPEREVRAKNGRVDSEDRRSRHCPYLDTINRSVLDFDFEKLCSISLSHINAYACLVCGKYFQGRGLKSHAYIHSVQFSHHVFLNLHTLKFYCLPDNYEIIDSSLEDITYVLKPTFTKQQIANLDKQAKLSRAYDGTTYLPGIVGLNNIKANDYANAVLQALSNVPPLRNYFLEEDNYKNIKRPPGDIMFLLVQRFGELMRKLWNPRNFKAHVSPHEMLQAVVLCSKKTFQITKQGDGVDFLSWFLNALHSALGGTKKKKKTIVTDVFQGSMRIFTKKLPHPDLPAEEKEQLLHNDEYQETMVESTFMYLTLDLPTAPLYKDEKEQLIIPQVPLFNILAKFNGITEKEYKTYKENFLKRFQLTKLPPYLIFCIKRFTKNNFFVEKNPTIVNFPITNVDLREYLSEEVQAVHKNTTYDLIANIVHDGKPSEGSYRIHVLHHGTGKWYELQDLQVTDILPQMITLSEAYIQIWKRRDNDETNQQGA
UniProt P17480: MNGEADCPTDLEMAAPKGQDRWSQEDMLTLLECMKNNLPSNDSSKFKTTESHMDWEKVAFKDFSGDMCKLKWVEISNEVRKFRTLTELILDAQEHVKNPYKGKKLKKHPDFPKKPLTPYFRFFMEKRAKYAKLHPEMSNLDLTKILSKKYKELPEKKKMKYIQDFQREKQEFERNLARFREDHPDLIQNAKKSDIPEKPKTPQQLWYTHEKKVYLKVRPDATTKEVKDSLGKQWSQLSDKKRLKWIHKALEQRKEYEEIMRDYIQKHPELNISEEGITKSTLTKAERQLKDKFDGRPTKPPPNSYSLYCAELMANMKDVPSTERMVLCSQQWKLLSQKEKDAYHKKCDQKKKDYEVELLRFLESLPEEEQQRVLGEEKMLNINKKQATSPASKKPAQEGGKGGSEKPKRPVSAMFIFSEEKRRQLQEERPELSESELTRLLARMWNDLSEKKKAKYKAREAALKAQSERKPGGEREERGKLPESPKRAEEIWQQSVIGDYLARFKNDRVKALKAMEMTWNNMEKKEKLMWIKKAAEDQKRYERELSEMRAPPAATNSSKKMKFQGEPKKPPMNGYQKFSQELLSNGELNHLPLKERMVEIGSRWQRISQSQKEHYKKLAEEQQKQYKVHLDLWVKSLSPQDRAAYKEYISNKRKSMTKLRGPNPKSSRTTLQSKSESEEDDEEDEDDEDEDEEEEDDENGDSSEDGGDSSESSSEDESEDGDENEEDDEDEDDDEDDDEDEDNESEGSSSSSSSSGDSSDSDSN
UniProt O60701: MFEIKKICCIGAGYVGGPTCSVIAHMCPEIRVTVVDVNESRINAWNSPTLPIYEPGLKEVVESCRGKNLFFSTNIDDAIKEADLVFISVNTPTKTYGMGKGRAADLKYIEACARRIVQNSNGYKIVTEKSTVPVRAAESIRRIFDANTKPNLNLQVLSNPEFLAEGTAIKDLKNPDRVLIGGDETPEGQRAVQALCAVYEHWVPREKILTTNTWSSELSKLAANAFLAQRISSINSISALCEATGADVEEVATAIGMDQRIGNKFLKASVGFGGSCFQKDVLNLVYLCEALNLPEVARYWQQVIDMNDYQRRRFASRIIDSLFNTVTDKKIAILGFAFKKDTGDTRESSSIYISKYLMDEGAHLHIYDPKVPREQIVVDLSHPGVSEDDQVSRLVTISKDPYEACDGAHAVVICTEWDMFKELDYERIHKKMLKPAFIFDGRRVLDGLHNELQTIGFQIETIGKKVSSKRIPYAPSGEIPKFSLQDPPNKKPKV
UniProt Q14146: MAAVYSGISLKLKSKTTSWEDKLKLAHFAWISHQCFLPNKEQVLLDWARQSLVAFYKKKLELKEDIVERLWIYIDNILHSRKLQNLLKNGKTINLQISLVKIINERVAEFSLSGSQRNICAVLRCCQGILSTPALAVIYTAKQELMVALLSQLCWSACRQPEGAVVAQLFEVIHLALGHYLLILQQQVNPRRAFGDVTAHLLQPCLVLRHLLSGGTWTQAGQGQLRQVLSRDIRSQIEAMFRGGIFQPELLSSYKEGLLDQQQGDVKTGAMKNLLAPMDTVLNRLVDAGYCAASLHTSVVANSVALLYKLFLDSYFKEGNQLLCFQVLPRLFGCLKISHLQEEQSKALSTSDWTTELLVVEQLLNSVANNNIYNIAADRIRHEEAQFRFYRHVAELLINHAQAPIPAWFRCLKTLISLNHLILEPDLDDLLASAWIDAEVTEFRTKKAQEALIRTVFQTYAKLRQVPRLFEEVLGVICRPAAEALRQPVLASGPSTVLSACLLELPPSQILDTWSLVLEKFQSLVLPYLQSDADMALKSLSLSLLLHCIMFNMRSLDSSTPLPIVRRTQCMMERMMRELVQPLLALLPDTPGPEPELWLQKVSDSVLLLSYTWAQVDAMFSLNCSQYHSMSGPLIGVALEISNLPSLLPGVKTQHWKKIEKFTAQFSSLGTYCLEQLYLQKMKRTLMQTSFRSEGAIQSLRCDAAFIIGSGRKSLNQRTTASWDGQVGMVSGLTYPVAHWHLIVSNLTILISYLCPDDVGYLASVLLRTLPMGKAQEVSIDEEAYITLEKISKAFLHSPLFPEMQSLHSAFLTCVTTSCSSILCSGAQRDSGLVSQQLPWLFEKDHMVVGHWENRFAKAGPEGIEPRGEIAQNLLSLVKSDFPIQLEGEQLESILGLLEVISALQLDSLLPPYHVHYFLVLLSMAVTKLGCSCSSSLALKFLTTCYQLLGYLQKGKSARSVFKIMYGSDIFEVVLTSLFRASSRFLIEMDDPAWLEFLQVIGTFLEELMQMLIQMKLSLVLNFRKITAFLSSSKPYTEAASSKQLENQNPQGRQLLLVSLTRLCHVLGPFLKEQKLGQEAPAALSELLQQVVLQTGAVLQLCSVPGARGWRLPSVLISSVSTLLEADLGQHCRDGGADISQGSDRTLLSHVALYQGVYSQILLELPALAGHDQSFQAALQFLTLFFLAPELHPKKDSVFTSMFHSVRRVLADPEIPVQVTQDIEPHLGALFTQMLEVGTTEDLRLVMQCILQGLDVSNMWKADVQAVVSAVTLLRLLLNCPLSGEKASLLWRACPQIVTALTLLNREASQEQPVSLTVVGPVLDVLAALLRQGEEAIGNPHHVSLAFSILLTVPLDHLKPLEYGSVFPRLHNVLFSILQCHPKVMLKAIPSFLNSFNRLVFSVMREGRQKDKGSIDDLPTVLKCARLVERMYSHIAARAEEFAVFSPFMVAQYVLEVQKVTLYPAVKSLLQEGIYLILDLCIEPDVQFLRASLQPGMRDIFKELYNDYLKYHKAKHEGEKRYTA
UniProt Q9NVE5: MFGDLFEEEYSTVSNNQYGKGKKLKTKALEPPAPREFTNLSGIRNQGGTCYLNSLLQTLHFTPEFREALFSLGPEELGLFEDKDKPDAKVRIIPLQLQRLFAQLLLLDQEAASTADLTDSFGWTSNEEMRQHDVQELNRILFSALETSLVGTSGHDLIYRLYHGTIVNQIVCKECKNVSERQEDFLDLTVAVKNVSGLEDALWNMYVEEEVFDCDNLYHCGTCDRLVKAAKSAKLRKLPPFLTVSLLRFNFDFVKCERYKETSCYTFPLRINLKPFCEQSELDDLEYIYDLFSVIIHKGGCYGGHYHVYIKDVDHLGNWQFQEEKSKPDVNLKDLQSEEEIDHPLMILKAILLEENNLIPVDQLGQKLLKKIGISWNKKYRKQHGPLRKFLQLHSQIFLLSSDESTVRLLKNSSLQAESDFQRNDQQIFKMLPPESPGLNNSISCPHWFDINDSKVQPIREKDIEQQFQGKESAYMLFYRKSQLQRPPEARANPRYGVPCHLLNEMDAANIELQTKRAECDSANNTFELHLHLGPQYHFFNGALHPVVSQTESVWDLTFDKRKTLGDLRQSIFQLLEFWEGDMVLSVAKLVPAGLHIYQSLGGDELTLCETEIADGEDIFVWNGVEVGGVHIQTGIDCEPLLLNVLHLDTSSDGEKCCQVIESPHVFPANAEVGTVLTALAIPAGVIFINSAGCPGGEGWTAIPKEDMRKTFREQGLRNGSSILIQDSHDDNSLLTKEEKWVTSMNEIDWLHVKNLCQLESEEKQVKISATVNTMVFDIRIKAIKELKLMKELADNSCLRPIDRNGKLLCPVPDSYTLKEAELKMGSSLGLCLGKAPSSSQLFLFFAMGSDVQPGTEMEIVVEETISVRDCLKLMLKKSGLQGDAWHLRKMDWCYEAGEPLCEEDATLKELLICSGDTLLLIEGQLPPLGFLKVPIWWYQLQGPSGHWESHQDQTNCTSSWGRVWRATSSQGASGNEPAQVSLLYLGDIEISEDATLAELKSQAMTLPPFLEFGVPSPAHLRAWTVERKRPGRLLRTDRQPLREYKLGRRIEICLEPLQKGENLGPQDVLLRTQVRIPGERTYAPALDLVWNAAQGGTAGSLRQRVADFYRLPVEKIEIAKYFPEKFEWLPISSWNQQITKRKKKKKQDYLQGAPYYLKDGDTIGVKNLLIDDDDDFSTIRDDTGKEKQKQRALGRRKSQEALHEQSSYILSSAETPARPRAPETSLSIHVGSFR
UniProt Q8WUN7: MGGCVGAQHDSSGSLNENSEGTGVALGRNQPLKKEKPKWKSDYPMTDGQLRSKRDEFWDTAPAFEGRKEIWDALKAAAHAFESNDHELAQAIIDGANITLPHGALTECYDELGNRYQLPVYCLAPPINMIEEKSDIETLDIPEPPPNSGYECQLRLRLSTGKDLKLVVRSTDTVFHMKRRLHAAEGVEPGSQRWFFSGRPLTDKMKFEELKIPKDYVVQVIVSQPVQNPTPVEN
UniProt Q9NYU2: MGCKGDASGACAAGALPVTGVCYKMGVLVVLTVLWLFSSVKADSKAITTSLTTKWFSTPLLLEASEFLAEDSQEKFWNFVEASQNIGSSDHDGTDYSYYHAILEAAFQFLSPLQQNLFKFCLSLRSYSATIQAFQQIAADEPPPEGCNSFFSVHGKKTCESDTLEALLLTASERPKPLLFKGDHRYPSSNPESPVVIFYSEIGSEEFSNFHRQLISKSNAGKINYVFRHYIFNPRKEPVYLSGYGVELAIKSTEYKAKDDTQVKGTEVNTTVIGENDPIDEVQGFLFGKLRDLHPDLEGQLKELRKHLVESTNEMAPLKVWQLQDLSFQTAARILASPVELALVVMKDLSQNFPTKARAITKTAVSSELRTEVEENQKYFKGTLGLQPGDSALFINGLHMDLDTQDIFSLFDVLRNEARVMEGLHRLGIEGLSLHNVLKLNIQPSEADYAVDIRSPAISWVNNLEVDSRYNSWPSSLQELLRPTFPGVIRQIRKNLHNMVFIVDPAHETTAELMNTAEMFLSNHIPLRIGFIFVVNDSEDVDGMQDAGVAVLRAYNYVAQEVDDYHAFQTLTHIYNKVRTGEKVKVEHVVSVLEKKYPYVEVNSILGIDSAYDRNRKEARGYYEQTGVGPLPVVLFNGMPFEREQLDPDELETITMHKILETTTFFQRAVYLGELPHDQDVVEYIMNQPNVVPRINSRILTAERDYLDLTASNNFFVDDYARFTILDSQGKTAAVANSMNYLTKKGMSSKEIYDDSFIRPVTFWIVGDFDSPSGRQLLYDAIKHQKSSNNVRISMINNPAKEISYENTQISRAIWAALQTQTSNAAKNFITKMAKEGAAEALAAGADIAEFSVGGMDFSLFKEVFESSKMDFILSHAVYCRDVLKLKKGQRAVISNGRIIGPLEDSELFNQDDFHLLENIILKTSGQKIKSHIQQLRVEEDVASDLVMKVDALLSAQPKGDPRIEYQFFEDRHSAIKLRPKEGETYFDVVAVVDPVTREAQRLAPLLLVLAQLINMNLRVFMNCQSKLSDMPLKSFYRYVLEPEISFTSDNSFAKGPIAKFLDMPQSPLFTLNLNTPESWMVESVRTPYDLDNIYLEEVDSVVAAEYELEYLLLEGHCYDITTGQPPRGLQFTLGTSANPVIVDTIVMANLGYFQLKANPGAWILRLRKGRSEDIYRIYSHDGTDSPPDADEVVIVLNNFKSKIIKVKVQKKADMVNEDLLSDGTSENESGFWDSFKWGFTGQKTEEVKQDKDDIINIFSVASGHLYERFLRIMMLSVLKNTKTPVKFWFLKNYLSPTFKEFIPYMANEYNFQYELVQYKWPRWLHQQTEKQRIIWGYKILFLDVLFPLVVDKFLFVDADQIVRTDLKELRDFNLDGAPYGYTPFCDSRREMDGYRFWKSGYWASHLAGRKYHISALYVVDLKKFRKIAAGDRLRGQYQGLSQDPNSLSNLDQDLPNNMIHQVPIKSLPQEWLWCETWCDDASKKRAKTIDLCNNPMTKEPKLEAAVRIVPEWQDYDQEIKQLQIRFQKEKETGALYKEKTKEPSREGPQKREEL

compound: Cc1cc(ccc1-c1ccccc1)C(=O)N1CCCN(CC1)C(=O)CCl [compound 10]; experiment: probe-labelled cysteine peptide fold change vs DMSO (competition) (log2 fold change); higher = less target engagement (more negative = stronger competition); settings: 10 µM; THP-1; incubation time: 4 h
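Further: competitive profiling in live THP-1 cells: cysteine peptides tagged with an iodoacetamide desthiobiotin (IA-DTB) probe, intensity after compound treatment relative to DMSO-treated cells.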

Target | probe-labelled cysteine peptide fold change
UBR7_Q8N806_374_VQQVELICEYNDLK (UniProt Q8N806) | 0.0344
UPF3B_Q9BZI7_453_LCPPDDSTK (UniProt Q9BZI7) | 0.074
UGP2_Q16851_276_RCEFVMEVTNK (UniProt Q16851) | 0.0627
USP39_Q53GS9_306_AHVSPHEMLQAVVLCSK (UniProt Q53GS9) | 0.113
UFSP2_Q9NUQ7_302_IDDNGWGCAYR (UniProt Q9NUQ7) | 0.25
UBTF_P17480_68_DFSGDMCK (UniProt P17480) | 0.117
USP4_Q13107_464_STLVCPECAK (UniProt Q13107) | -0.00729
UGDH_O60701_20+27_ICCIGAGYVGGPTCSVIAHMCPEIR (UniProt O60701) | 0.00687
URB2_Q14146_1380_LHNVLFSILQCHPK (UniProt Q14146) | 0.325
UCHL5_Q9Y5K5_88_QVINNACATQAIVSVLLNCTHQDVHLGETLSEFK (UniProt Q9Y5K5) | 0.143
USP40_Q9NVE5_832_MGSSLGLCLGK (UniProt Q9NVE5) | 0.122
USF1_P22415_248_ACDYIQELR (UniProt P22415) | -0.0972
USP7_Q93009_300_SFGWETLDSFMQHDVQELCR (UniProt Q93009) | 0.0196
UPF1_Q92900_675_QLILVGDHCQLGPVVMCK (UniProt Q92900) | -0.0215
UBTD2_Q8WUN7_152_SDIETLDIPEPPPNSGYECQLR (UniProt Q8WUN7) | 0.323
UGGT1_Q9NYU2_1475_SLPQEWLWCETWCDDASK (UniProt Q9NYU2) | 0.0416

A section from the list above:
Target | probe-labelled cysteine peptide fold change
UBTD2_Q8WUN7_152_SDIETLDIPEPPPNSGYECQLR (UniProt Q8WUN7) | 0.323
UGGT1_Q9NYU2_1475_SLPQEWLWCETWCDDASK (UniProt Q9NYU2) | 0.0416
